No constants are given. Whether binding was seen depends on the method and setting. Some results given as binding are weak or reduced against the parent protein; the word gives no strength. Sequences can lack the tags named with a protein.
Molecular target: β isoform of PP1c released from rabbit skeletal muscle PP1G (rabbit) (UniProt P62143)
Assay: inferred from the concentration giving maximal MLC20 phosphatase activation

The chains behind the UniProt entries cited, without tags or fusion partners. Residues count along the entry.
UniProt P62143, residues 2-327: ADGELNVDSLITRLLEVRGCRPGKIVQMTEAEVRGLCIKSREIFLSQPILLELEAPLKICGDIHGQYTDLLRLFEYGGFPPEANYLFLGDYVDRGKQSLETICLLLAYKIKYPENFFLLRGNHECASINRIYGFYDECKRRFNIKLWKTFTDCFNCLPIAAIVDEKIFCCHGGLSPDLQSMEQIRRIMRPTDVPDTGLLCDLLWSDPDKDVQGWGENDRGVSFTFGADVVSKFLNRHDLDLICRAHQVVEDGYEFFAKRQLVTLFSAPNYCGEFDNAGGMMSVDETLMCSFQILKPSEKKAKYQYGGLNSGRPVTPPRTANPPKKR

B1: M110-(M1-E309), released from GST with thrombin (protein)
chain: GSPGMKMADAKQKRNEQLKRWIGSETDLEPPVVKRQKTKVKFDDGAVFLAACSSGDTDEVLKLLHRGADINYANVDGLTALHQACIDDNVDMVKFLVENGANINQPDNEGWIPLHAAASCGYLDIAEFLIGQGAHVGAVNSEGDTPLDIAEEEAMEELLQNEVNRQGVDIEAARKEEERIMLRDARQWLNSGHISDVRHAKSGGTALHVAAAKGYTEVLKLLIQAGYDVNIKDYDGWTPLHAAAHWGKEEACRILVDNLCDMETVNKVGQTAFDVADEDILGYLEELQKKQNLLHSEKRDKKSPLIESTANMEA
binding: binds
